Results from US20210269521A1.
No constants are given. Whether binding was seen depends on the method and setting.

Assays:
Macaca TIM-3 (Macaca) [1] = test: ELISA
Macaca TIM-3 (Macaca) [2] = test: ELISA on Macaca TIM-3, OD450 against Log[nM] of antibody

B1: humanized anti-TIM-3 antibody ab6 (antibody, IgG4, V domains shown)
VH: EVQLVESGGGLVKPGGSLRLSCAASGFTFSDYYMAWVRQAPGKGLEWVANINYDGSNTYYLDSLKSRFTISRDNAKNSLYLQMNSLRAEDTAVYYCARGLYYYGGNYFAYWGQGTLVTVSS
VL: DIQMTQSPSSLSASVGDRVTITCHASQGISSNIGWLQQKPGKAFKGLIYQGSNLEDGVPSRFSGSGSGADYTLTISSLQPEDFATYYCVQFAQFPPTFGQGTKLEIK
- binding (Macaca TIM-3 (Macaca) [1]): no binding
- binding (Macaca TIM-3 (Macaca) [2]): no binding (tested: Log[nM] about 1.8 (about 60 nM))
